# Measurements from PubChem BioAssay AID504834 (National Center for Advancing Translational Sciences (NCATS), 2011).
# Out of some 320,000 compounds screened, about 22,000 (6.9%) were called active. The inconclusive results got no clear call from the source; some entries with a clear call stand among them for comparison. Calls come from the whole dose curve; as a rule, active = well fitted inhibition curve with a large enough effect; inconclusive = small, poorly fitted or top-dose-only effect, or another doubt; inactive = no such curve, though single readings can be large or run the other way. Potencies beside an inconclusive call are fits to weak or partial responses and may not hold up.
# Experiment: Primary qHTS for delayed death inhibitors of the malarial parasite plastid, 96 hour incubation
# Conditions: P. falciparum luciferase reporter growth; series mostly up to 28.7 µM; activity change, negative = inhibition: at the top concentration
# In short: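 Luminescence readout: decreased luciferase signal marks inhibited growth of reporter-expressing P. falciparum in infected red cells (2% hematocrit, 0.05% parasitemia final), exposed to compound two generations (96 h, 37 C, 5% CO2).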
# % is set by controls: 0 for no effect and ±100 for the full control effect; potency is the fitted concentration of half-maximal effect.
Structure (SMILES),Potency,"activity change, negative = inhibition"
CCOC(=O)c1c(NC(=O)COc2ncnc3sccc23)sc2c1CCC2,"inconclusive: 6.57 µM [inhibitor, single point]",
CC(=O)NC1CC2CCCC(C1)N2Cc1ccc(C)cc1 (stereo unspecified),"inconclusive: 18.5 µM [inhibitor, single point]",
Cc1ccccc1OCC(=O)Nc1cccc2nsnc12,"inconclusive: 18.5 µM [inhibitor, single point]",
O=C(NCCN1C(=O)S/C(=C\c2ccc(F)cc2)C1=O)c1cccc(S(=O)(=O)N2CCOCC2)c1,"inconclusive: 16.5 µM [inhibitor, single point]",
CC(C)N(C(=O)Cn1cc(S(=O)(=O)CC(=O)NCc2ccc(F)cc2)c2ccccc21)C(C)C,"inconclusive: 4.15 µM [inhibitor, full curve]",
Cc1ccc2c(c1)C1CN(C)CCC1N2C(=O)COc1ccc(N(C)C(=O)c2ccccc2)cc1 (stereo unspecified),"inconclusive: 18.5 µM [inhibitor, single point]",
O=C(NCC1(N2CCCCC2)CCCCC1)C1CC(=O)N(c2ccc3c(c2)OCCO3)C1 (stereo unspecified),,inactive: 40.1%
Cc1ccccc1NC(=O)CNC(=O)Cc1cccc2ccccc12,,inactive: 30.2%
O=C1CSCN1c1ccc(Cl)cc1,,inactive: 27.3%
Cc1ccn2cc(-c3cccc(NS(C)(=O)=O)c3)nc2c1,,inactive: 37.9%
O=C(NN1C(=O)c2ccccc2C1=O)C1C2CCCCC21 (stereo unspecified),,inactive: -26.8%
Cc1cccc(C)c1NC(=O)COC(=O)c1cccc2c1C(=O)c1ccccc1C2=O,,inactive: -17.1%
Cc1[nH]n(-c2ccc(Cl)cc2)c(=O)c1N=Nc1cccnc1,"inconclusive: 10.4 µM [inhibitor, single point]",
O=S(=O)(c1cccc(-c2nc3ccccc3s2)c1)N1CCOCC1,"inconclusive: 0.0738 µM [inhibitor, full curve, poor fit]",
O=C(CSc1nnc(NC(=O)c2ccco2)s1)NC1CCCC1,"inconclusive: 14.7 µM [inhibitor, partial curve, poor fit]",
COc1ccc(-c2nc(CN3CCN(C(=O)c4ccco4)CC3)c(C)o2)c(OC)c1C,,inactive: 53%
Cc1cc(C)cc(NC(=O)c2cccc(NC(=O)C3C4CC5OC(=O)C3C5C4)c2)c1 (stereo unspecified),active: 0.0738 µM,
Cc1cc(C2(c3ccc(O)c(C)c3)C(=O)Nc3ccccc32)ccc1O,,inactive: 21.2%
CN(CC(=O)Nc1ccc(Cl)c(C(F)(F)F)c1)C(=O)C1(c2ccccc2)CC1,"inconclusive: 11.7 µM [inhibitor, single point]",
CCn1c(C)nc2cc(C(=O)N/N=C/c3ccccc3)ccc21,,inactive: 159%
Nc1ccc(Oc2ccc3nc(-c4ccccc4)c(-c4ccc([N+](=O)[O-])cc4)nc3c2)cc1,"inconclusive: 2.62 µM [inhibitor, full curve, poor fit]",
COc1cccc(-n2sc3c(c2=S)-c2cc(OC)ccc2NC3(C)C)c1,"inconclusive: 18.5 µM [inhibitor, single point]",
CCN(CC)CCCNc1ncnc2ccccc12,"inconclusive: 8.28 µM [inhibitor, partial curve]",

# 3 compounds out of the list, ordered by formula weight, smallest number first.
Structure (SMILES),Potency,"activity change, negative = inhibition"
O=S(=O)(c1cccc(-c2nc3ccccc3s2)c1)N1CCOCC1,"inconclusive: 0.0738 µM [inhibitor, full curve, poor fit]",
Cc1cc(C)cc(NC(=O)c2cccc(NC(=O)C3C4CC5OC(=O)C3C5C4)c2)c1 (stereo unspecified),active: 0.0738 µM,
Cc1cccc(C)c1NC(=O)COC(=O)c1cccc2c1C(=O)c1ccccc1C2=O,,inactive: -17.1%

# (next part)

Structure (SMILES),Potency,"activity change, negative = inhibition"
CCOC(=O)c1c(N)sc2c1CCC(CC)C2 (stereo unspecified),,inactive: -11.7%
O=C(Cc1ccccc1)NNC(=S)NC(=O)c1cccnc1,"inconclusive: 2.94 µM [inhibitor, full curve, poor fit]",
Cc1cc(NC(=O)C(C)Sc2nc(-c3ccccc3)cc(=O)[nH]2)no1 (stereo unspecified),"inconclusive: 18.5 µM [inhibitor, single point]",
Cc1cc(C)cc(NC(=O)c2cccn2-c2ncc(C(F)(F)F)cc2Cl)c1,active: 13.1 µM,
COc1ccc(C(=O)NCCS(=O)(=O)NCC2CCCO2)cc1 (stereo unspecified),"inconclusive: 0.522 µM [inhibitor, partial curve]",
CCOC(=O)CNc1nc(Cl)nc(NC(C)(C)C)n1,active: 13.1 µM,
CCc1c(C)nc2ncnn2c1NCCc1ccc(OC)cc1,"inconclusive: 16.5 µM [inhibitor, single point]",
CSc1ccc(CNC(=O)C2CCC(=O)N(Cc3cccc(F)c3)C2)cc1 (stereo unspecified),"inconclusive: 18.5 µM [inhibitor, single point]",
O=C(CSc1nnc(COc2ccc(Cl)cc2)o1)N1CCCC1,,inactive: 1.47%
COc1ccc(CCC(=O)Nc2nc3ccccc3[nH]2)cc1,,inactive: 130%
O=[N+]([O-])c1cccc(-c2csc(Nc3ccccc3)n2)c1,"inconclusive: 11.7 µM [inhibitor, single point]",
COc1ccc(C(=O)NNC(=S)NC(=O)c2ccccc2[N+](=O)[O-])cc1,"inconclusive: 3.7 µM [inhibitor, partial curve, poor fit]",
CCC1(CC)C(=O)NC(=O)NC1=Nc1cccc(OC)c1,"inconclusive: 11.7 µM [inhibitor, single point]",
CN1CCN(C2CCN(Cc3ccc(O)c4ncccc34)CC2)CC1,"inconclusive: 5.22 µM [inhibitor, single point]",
CCCNC(=O)Cn1cnc2sc(C(=O)N3CCN(Cc4ccc5c(c4)OCO5)CC3)c(C)c2c1=O,"inconclusive: 9.28 µM [inhibitor, partial curve, poor fit]",
CCOC(=O)c1cncc(C#CCO)c1,,inactive: 0.885%
Clc1cc2nc3ccccn3c2cc1Cl,,inactive: 80.5%
O=C(Cn1cnc2cc([N+](=O)[O-])ccc2c1=O)Nc1ccccc1-c1ccccc1,"inconclusive: 18.5 µM [inhibitor, single point]",
O=S(=O)(CCSc1ccc(C(F)(F)F)cn1)c1ccccc1,"inconclusive: 0.329 µM [inhibitor, partial curve, poor fit]",
CC1(C)Cc2c(sc3nc(-c4ccccc4)n(N)c(=O)c23)CO1,"inconclusive: 9.28 µM [inhibitor, single point]",
COc1ccc(C(=O)C(C)OC(=O)c2nc3nccc(C)n3n2)cc1 (stereo unspecified),,inactive: 31.3%
Cc1ccc(NC(=S)NCCc2c[nH]c3ccccc23)c(C)c1,"inconclusive: 11.7 µM [inhibitor, partial curve, poor fit]",
CC12CCC(C(=O)N(CSC(=S)N/N=C\c3ccccc3)C1=O)C2(C)C (stereo unspecified),"inconclusive: 18.5 µM [inhibitor, single point]",
